Data on 1 substance can be found in article PMC12548458.

Protein sequences, listed by entry. Tags and fused reporters are not part of them.
UniProt Q06187: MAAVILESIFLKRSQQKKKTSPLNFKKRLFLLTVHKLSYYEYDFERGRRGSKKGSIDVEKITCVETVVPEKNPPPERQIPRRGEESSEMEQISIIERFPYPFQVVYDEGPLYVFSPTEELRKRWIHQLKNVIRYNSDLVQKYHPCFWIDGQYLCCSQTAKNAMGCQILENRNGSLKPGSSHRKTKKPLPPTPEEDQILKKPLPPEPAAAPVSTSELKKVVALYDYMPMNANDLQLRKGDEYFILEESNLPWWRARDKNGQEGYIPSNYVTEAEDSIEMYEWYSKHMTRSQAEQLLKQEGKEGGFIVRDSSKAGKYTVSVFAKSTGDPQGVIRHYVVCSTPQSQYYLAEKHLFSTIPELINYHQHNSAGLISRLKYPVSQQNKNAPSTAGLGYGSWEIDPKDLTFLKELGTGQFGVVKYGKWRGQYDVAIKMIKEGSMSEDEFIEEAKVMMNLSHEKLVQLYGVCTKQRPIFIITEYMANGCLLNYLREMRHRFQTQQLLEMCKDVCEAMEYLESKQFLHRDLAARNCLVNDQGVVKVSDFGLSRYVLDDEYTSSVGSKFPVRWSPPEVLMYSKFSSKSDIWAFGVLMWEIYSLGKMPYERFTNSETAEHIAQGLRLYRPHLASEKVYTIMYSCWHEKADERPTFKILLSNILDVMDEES
UniProt Q9UJV9: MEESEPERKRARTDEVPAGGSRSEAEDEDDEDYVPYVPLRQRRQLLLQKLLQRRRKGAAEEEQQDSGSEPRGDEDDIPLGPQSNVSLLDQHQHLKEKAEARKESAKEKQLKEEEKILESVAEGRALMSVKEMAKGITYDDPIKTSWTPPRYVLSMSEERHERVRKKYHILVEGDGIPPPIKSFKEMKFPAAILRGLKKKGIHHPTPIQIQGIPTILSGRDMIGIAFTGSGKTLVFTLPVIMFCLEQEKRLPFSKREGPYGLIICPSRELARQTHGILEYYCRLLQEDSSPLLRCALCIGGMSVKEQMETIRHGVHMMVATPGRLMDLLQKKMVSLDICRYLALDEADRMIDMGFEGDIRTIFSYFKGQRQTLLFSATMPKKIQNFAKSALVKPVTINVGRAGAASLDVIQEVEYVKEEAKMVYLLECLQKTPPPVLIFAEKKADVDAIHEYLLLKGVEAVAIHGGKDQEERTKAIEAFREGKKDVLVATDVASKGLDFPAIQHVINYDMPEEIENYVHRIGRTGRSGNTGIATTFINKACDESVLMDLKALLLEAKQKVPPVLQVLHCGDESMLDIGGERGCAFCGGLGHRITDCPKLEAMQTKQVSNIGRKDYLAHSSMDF
UniProt Q86WV6: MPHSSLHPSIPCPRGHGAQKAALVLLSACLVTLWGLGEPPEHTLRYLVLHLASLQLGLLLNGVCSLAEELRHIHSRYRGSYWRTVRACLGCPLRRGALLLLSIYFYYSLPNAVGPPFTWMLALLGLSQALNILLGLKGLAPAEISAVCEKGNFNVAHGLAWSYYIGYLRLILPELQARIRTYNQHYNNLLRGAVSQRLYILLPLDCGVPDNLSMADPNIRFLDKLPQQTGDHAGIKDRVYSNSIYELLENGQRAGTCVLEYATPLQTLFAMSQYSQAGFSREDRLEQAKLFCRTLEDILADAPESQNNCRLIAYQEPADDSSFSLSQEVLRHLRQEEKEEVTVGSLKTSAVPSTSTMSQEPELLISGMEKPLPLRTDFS

These are yes or no findings as the source states them, for the method shown. Binding seen in cells or lysates may run through a third protein. Some binding calls cover weakened binding; strength is not graded here.

Test [1] concerns the target Bruton's tyrosine kinase (BTK) (human (endogenous in NuFF-1)) (UniProt Q06187). Kind of test: co-IP; lysates of mock- or TB40/EmCherry (WT)-infected NuFF-1 fibroblasts (MOI = 0.5 TCID50/cell); IP with anti-BTK, anti-DDX41 or isotype IgG on protein G beads overnight at 4°C; IP buffer 25 mM Tris pH 7.4, 1 mM MgCl2, 2 mM EDTA, 1.0% Triton-X 100, 150 mM NaCl; four washes; western blot for STING, pp65 or pp71. A general note: Immunoblotting shows a protein as a band on a membrane.

Test [2] addresses DEAD-box helicase 41 (DDX41) (human (endogenous in NuFF-1)) (UniProt Q9UJV9). The test is described as above.

For “stimulator of interferon genes (STING) (from UniProt Q86WV6 1-379)”, the binding result in test [1] and in test [2] was “binds” in each case.
